Measurements as given in the supplement of paper PMC5711842.
Structures can show the parent of a compound that is named as a salt. Single values of this set are uncertain. Peptide text beside a SMILES is read from it. * marks the point of attachment. Cbz = O=C(OCc1ccccc1)*

Tested on: Danio rerio embryo
Assay: lowest lethal concentration (of 2, 10, 50 µM tested), 10-36 hpf treatment; higher = less toxic
Conditions: treatment window: 10-36 hpf

SMILES	lowest lethal concentration
Oc1ccc2ccccc2c1SSc1c(O)ccc2ccccc12 [IPA-3]	> 50 µM
CC(=O)c1ccc(NN=C(C(N)=O)C2=NC(C)(C)Cc3ccccc32)cc1 [IQ-1]	50 µM
O=C(Nc1nc2ccccc2n1CCN1CCOCC1)c1cccc([N+](=O)[O-])c1 [IRAK-1/4 Inhibitor]	> 50 µM
O=C(c1ccc(Cl)cc1Cl)n1nnc2ccccc21 [ITSA1]	> 50 µM
CNC(=O)[C@H](Cc1c[nH]c2ccccc12)NC(=O)[C@@H](CC(=O)NO)CC(C)C [Ilomastat]	> 50 µM
CCOc1ccc(Nc2nc(-c3c(C)nc4ccccn34)cs2)cc1 [JK 184]	2 µM
CCOc1nc(NC(=O)Cc2cc(OC)ccc2OC)cc(N)c1C#N [JNK Inhibitor VIII]	> 50 µM
Cc1ccc(NCCCc2ccccc2)c(N)c1 [JSH-23]	> 50 µM
CN(C(Cc1ccc(OS(=O)(=O)c2cccc3cnccc23)cc1)C(=O)N1CCN(c2ccccc2)CC1)S(=O)(=O)c1cccc2cnccc12 (stereo not given) [KN-62]	> 50 µM
COc1ccc(S(=O)(=O)N(CCO)c2ccccc2CN(C)CC=Cc2ccc(Cl)cc2)cc1 [KN-93]	> 50 µM
O=CN1CC/C(=C/c2ccc3c(c2)OCO3)C1=O [KNK437]	> 50 µM
CCC(C)C(COC(Cc1ccccc1)C(=O)NC(CCS(C)(=O)=O)C(=O)OC(C)C)NCC(N)CS [L-744,832]	> 50 µM
C/C(O)=C(\C#N)C(=O)Nc1cc(Br)ccc1Br [LFM-A13]	> 50 µM
C/C1=C/C(=O)O[C@@H]2C[C@@H](CC[C@H](C)/C=C\CC1)O[C@@](O)([C@@H]1CSC(=O)N1)C2 [Latrunculin B]	> 50 µM
Nc1ncnc2c1c(-c1ccc(Oc3ccccc3)cc1)cn2C1CCCC1 [Lck Inhibitor]	> 50 µM
C/C=C/C(=O)N1C(=O)OC[C@@H]1Cc1ccccc1 [Locostatin]	50 µM
N#C/C(=C(/N)Sc1ccccc1N)c1cccc(C(O)c2ccncc2)c1 (stereo not given) [MEK Inhibitor I]	> 50 µM
CC(C)C[C@@H](C=O)NC(=O)[C@H](CC(C)C)NC(=O)[C@H](CC(C)C)NC(=O)OCc1ccccc1 [MG-132] (Cbz-Leu-Leu-Leu-aldehyde)	> 50 µM
O=C1NCCc2[nH]c(-c3ccnc(-c4cnc5ccccc5c4)c3)cc21 [MK-2 Inhibitor III]	> 50 µM
CCCC[C@@H](C)/C=C(C)/C=C(\C)C(=O)NC1=C[C@@](O)(/C=C/C=C/C=C/C(=O)NC2=C(O)CCC2=O)[C@@H]2O[C@@H]2C1=O [Manumycin A]	50 µM
CNC(=O)[C@@H](NC(=O)[C@H](CC(C)C)[C@H](O)C(=O)NO)C(C)(C)C [Marimastat]	> 50 µM
CN(C)C(=N)NC(=N)N [Metformin hydrochloride]	> 50 µM
CSC[C@H]1O[C@@H](n2cnc3c(N)ncnc32)[C@H](O)[C@@H]1O [Methylthioadenosine]	> 50 µM
CC#C[C@]1(O)CC[C@H]2[C@@H]3CCC4=CC(=O)CCC4=C3[C@@H](c3ccc(N(C)C)cc3)C[C@@]21C [Mifepristone]	> 50 µM
O=c1cc(-c2ccccc2)oc2cc(O)ccc12.O=c1cc(-c2ccccc2)oc2cc(O)ccc12.[Cl-].[Cl-].[Mn+2] [Mn-cpx 3]	> 50 µM

Part of the list above in order of number of heavy atoms, ascending.
SMILES	lowest lethal concentration
CN(C)C(=N)NC(=N)N [Metformin hydrochloride]	> 50 µM
C/C=C/C(=O)N1C(=O)OC[C@@H]1Cc1ccccc1 [Locostatin]	50 µM
O=C(c1ccc(Cl)cc1Cl)n1nnc2ccccc21 [ITSA1]	> 50 µM
CNC(=O)[C@@H](NC(=O)[C@H](CC(C)C)[C@H](O)C(=O)NO)C(C)(C)C [Marimastat]	> 50 µM
Oc1ccc2ccccc2c1SSc1c(O)ccc2ccccc12 [IPA-3]	> 50 µM
CCOc1ccc(Nc2nc(-c3c(C)nc4ccccn34)cs2)cc1 [JK 184]	2 µM
CCOc1nc(NC(=O)Cc2cc(OC)ccc2OC)cc(N)c1C#N [JNK Inhibitor VIII]	> 50 µM
CC(=O)c1ccc(NN=C(C(N)=O)C2=NC(C)(C)Cc3ccccc32)cc1 [IQ-1]	50 µM
CNC(=O)[C@H](Cc1c[nH]c2ccccc12)NC(=O)[C@@H](CC(=O)NO)CC(C)C [Ilomastat]	> 50 µM
O=C(Nc1nc2ccccc2n1CCN1CCOCC1)c1cccc([N+](=O)[O-])c1 [IRAK-1/4 Inhibitor]	> 50 µM
COc1ccc(S(=O)(=O)N(CCO)c2ccccc2CN(C)CC=Cc2ccc(Cl)cc2)cc1 [KN-93]	> 50 µM
CCC(C)C(COC(Cc1ccccc1)C(=O)NC(CCS(C)(=O)=O)C(=O)OC(C)C)NCC(N)CS [L-744,832]	> 50 µM
CCCC[C@@H](C)/C=C(C)/C=C(\C)C(=O)NC1=C[C@@](O)(/C=C/C=C/C=C/C(=O)NC2=C(O)CCC2=O)[C@@H]2O[C@@H]2C1=O [Manumycin A]	50 µM
CN(C(Cc1ccc(OS(=O)(=O)c2cccc3cnccc23)cc1)C(=O)N1CCN(c2ccccc2)CC1)S(=O)(=O)c1cccc2cnccc12 (stereo not given) [KN-62]	> 50 µM

Two records picked at random from those above, as already listed:
SMILES	lowest lethal concentration
CCCC[C@@H](C)/C=C(C)/C=C(\C)C(=O)NC1=C[C@@](O)(/C=C/C=C/C=C/C(=O)NC2=C(O)CCC2=O)[C@@H]2O[C@@H]2C1=O [Manumycin A]	50 µM
CSC[C@H]1O[C@@H](n2cnc3c(N)ncnc32)[C@H](O)[C@@H]1O [Methylthioadenosine]	> 50 µM

(list continues)

SMILES	lowest lethal concentration
O=C(O)c1ccc(-c2c3nc(c(-c4ccc(C(=O)O)cc4)c4ccc([n-]4)c(-c4ccc(C(=O)O)cc4)c4nc(c(-c5ccc(C(=O)O)cc5)c5ccc2[n-]5)C=C4)C=C3)cc1.[Cl-].[Mn+3] [Mntbap]	> 50 µM
CC(C)CC[C@@H](O)[C@](C)(O)[C@H]1CC[C@@]2(O)C3=CC(=O)[C@]4(O)C[C@@H](O)[C@@H](O)C[C@]4(C)[C@H]3[C@H](O)C[C@]12C [Muristerone A]	> 50 µM
CC(=O)N[C@@H](CSC/C=C(\C)CC/C=C(\C)CCC=C(C)C)C(=O)O [N-Acetyl-S-farnesyl-L-cysteine]	> 50 µM
CCNC(=O)[C@H]1O[C@@H](n2cnc3c(N)ncnc32)[C@H](O)[C@@H]1O [NECA]	> 50 µM
O=C(Nc1ncc([N+](=O)[O-])s1)c1ccc([N+](=O)[O-])c(Cl)c1 [NF-kappaB Activation Inhibitor III]	50 µM
CCCCCCCCCCCCCCCCn1cc[n+](Cc2ccccc2)c1C [NH125]	50 µM
O=C(Nc1cccc(C(F)(F)F)c1)Nc1cc(Cl)ccc1C(=O)O [NS3694]	50 µM
O=c1cc(N2CCOCC2)oc2c1ccc1ccccc12 [NU7026]	> 50 µM
O=C(N/N=C/c1ccc([N+](=O)[O-])o1)c1ccc(O)cc1 [Nifuroxazide]	> 50 µM
COc1ccc(C2=N[C@@H](c3ccc(Cl)cc3)[C@@H](c3ccc(Cl)cc3)N2C(=O)N2CCNC(=O)C2)c(OC(C)C)c1 [Nutlin-3]	> 50 µM
C=C1[C@@H](O)[C@@H]2O[C@]3(CC[C@H](/C=C/[C@@H](C)[C@@H]4CC(C)=C[C@@]5(O[C@H](C[C@@](C)(O)C(=O)O)CC[C@H]5O)O4)O3)CC[C@H]2O[C@@H]1[C@@H](O)C[C@H](C)[C@H]1O[C@@]2(CCCCO2)CC[C@H]1C [Okadaic acid]	> 50 µM
COc1cc2ncnc(N3CCN(C(=O)Nc4ccc(Oc5ccccc5)cc4)CC3)c2cc1OC [PDGFR Tyrosine Kinase Inhibitor III]	> 50 µM
O=c1c(N=Nc2ccc(S(=O)(=O)O)cc2)c(-c2ccc([N+](=O)[O-])cc2)[nH]n1-c1ccccc1 [PHPS1]	> 50 µM
Oc1cccc(-c2nc(N3CCOCC3)c3sccc3n2)c1 [PI 3-Kalpha Inhibitor IV]	50 µM
O=C1Nc2ccc3ncsc3c2/C1=C/c1cnc[nH]1 [PKR Inhibitor]	50 µM
CC(C)(C)n1nc(-c2ccc(Cl)cc2)c2c(N)ncnc21 [PP2]	> 50 µM
O=C1C2CCN(CC2)C1(CO)CO [PRIMA-1]	> 50 µM
O=C(Nc1cc(Cl)cc2c1[nH]c1cnccc12)c1cccnc1 [PS-1145]	> 50 µM
CCc1oc2cc(S(=O)(=O)Nc3ccc(S(=O)(=O)Nc4nccs4)cc3)ccc2c1C(=O)c1cc(Br)c(O)c(Br)c1 [PTP1B Inhibitor]	50 µM
CCCCCCCCCCCCCC(=O)O[C@@H]1[C@@H](C)[C@@]2(O)[C@@H](C=C(CO)C[C@]3(O)C(=O)C(C)=C[C@@H]23)[C@@H]2C(C)(C)[C@]12OC(C)=O [Phorbol 12-myristate 13-acetate]	10 µM
O=c1[nH]c2ccccc2n1C1CCN(CCCC(c2ccc(F)cc2)c2ccc(F)cc2)CC1 [Pimozide]	> 50 µM
COc1cc2ncn(-c3cc(OCc4ccc(S(C)(=O)=O)cc4)c(C(N)=O)s3)c2cc1OC [Polo-like Kinase Inhibitor I]	> 50 µM
CC(C)(C)c1nc2c3cc[nH]c(=O)c3c3cc(F)ccc3c2[nH]1 [Pyridone 6]	> 50 µM
Cc1ccc(-c2cn3c4c(sc3n2)CCCC4)cc1 [QB102]	50 µM
FC(F)(F)c1nnc2c(Sc3ccccc3)nc3ccc(Cl)cc3n12 [R 7050]	> 50 µM
